Measurements published in PubChem BioAssay AID540276 (National Center for Advancing Translational Sciences (NCATS), 2011).
About 5,400 (1.8%) of roughly 300,000 compounds were called active. Inconclusive results, whose numbers are uncertain, are shown with a selection of clear calls. Calls follow the shape of the full dose curve; tested in HEK293 cells. Potencies of inconclusive entries are doubtful fits and often do not repeat.
% is scaled to controls: 0 for no effect and ±100 for the full control effect; potency is read from the fitted curve at half-maximal effect.

Test: qHTS for inhibitors of binding or entry into cells for Marburg Virus
Settings: Marburg virus pseudotyped entry inhibition, cell reporter; activity change, negative = inhibition: at 37.8 µM (top of the series) unless noted
In the case of `CC1CCCCN1S(=O)(=O)c1ccc(C(=O)Nc2nnc(-c3ccccn3)o2)cc1` (configuration not stated), the Potency is reported as inconclusive: 2.82 µM [activator, partial curve, poor fit]. With `CC1(C)OC2OC3C(CN)OC(c4ccccc4)OC3C2O1` (configuration not stated) the Potency was inconclusive: 35.5 µM [activator, single point]. With `CCOC(=O)c1c(C)c(C(=O)Nc2ccc(N(C)C)cc2)c(C)n1CC` the Potency was inconclusive: 3.26 µM [inhibitor, full curve, poor fit]. With `COC(=O)c1cc2c(ccn2-c2ccc(F)cc2)n1Cc1ccc(C#N)cc1` the Potency was inconclusive: 35.5 µM [inhibitor, single point]. With `CCC(C)NC(=O)c1cc(-c2ccc(OC)cc2)on1` (configuration not stated) the Potency was inconclusive: 1.16 µM [activator, single point]. For `CC1=C(c2ccc(Cl)cc2)S(=O)(=O)N=C1N1CCN(c2cccc(C(F)(F)F)c2)CC1`, the Potency was inconclusive: 20 µM [inhibitor, partial curve, poor fit]. In the case of `CC(=O)c1cccc(NC(=O)c2ccc(C(=O)Nc3cccc(C(C)=O)c3)nc2)c1`, the “activity change, negative = inhibition” value is reported as inactive: 2.92%. In the case of `CN(CCC#N)C(=O)CSc1nc2scc(-c3ccccc3)c2c(=O)[nH]1`, the Potency is reported as inconclusive: 3.16 µM [activator, single point]. In the case of `O=C(O)C(Cc1c[nH]c2ccccc12)N1Cc2ccccc2C1=O` (configuration not stated), the Potency is reported as inconclusive: 3.98 µM [activator, single point]. In the case of `O=C(NC(=S)NCC1CCCO1)c1ccccc1` (configuration not stated), the Potency is reported as inconclusive: 0.126 µM [activator, partial curve, poor fit]. For `COc1ccc(/C(O)=C/c2nc3ccccc3n(-c3ccccc3)c2=O)cc1`, the Potency was inconclusive: 10 µM [activator, partial curve, poor fit]. For `COc1ccc(C(=O)OCC(=O)NCCc2ccc(F)cc2)cc1S(=O)(=O)N1CCOCC1`, the “activity change, negative = inhibition” value was inactive: -2.87%. In the case of `COc1ccc(Nc2nc3ccc(C)cc3cc2C#N)c(OC)c1`, the Potency is reported as inconclusive: 11.2 µM [activator, partial curve, poor fit]. In the case of `COc1ccc(C(=O)NCCSc2ccccc2)cc1`, the Potency is reported as inconclusive: 8.91 µM [inhibitor, partial curve, poor fit]. For `COc1ccccc1OCc1ccc(C(=O)c2ccccc2)cc1`, the Potency was inconclusive: 17.8 µM [activator, partial curve, poor fit]. In the case of `COc1ccc(NC2CC(=O)N(c3cccc([N+](=O)[O-])c3)C2=O)cc1` (configuration not stated), the “activity change, negative = inhibition” value is reported as inactive: 12.6%. In the case of `CC(=O)Nc1nnc(SCc2ccc(C(=O)Nc3ccccc3F)cc2)s1`, the “activity change, negative = inhibition” value is reported as inactive: -5.33%. For `CCCn1cc(CN2CCC(Cc3ccccc3)(C(=O)OCC)CC2)c(C)n1`, the Potency was inconclusive: 3.16 µM [inhibitor, partial curve, poor fit]. In the case of `CCCCn1nnc(NC(=O)c2ccc(-c3cccc(Cl)c3)o2)n1`, the “activity change, negative = inhibition” value is reported as inactive: 8.89%. In the case of `COc1ccc(OCCC(=O)OCC(=O)NCc2ccco2)cc1`, the “activity change, negative = inhibition” value is reported as inactive: -4.04%. For `C=CCCC(=O)N1CCC(Oc2cccc(C(=O)NCc3ccccn3)c2)CC1`, the “activity change, negative = inhibition” value was inactive: -22.5%. In the case of `CN1CCCN=C1COC(=O)[C@@](O)(c1ccccc1)C1CCCCC1`, the “activity change, negative = inhibition” value is reported as inactive: -5.57%. In the case of `CC(=N\NC(=O)c1ccc([N+](=O)[O-])cc1)/C(=N/O)C(=O)Nc1ccccc1`, the Potency is reported as inconclusive: 1.78 µM [activator, single point]. For `COc1cc(C2Nc3ccccc3C(=O)N2c2ccc3c(c2)OCCO3)ccc1OCC(C)C` (configuration not stated), the Potency was inconclusive: 8.91 µM [inhibitor, partial curve, poor fit]. With `N/C(=N\OC(=O)CCCOc1ccc(Cl)cc1Cl)c1ccncc1` the “activity change, negative = inhibition” value was inactive: 10.9% [at 46.1 µM]. For `Cc1ccc(S(=O)(=O)/N=C(\N)c2ccc(Cl)cc2)cc1`, the Potency was inconclusive: 35.5 µM [inhibitor, partial curve, poor fit]. With `C=C(C)[C@@H]1CCC2(C(=O)O)CC[C@]3(C)[C@H](CC[C@@H]4[C@@]5(C)CCC(=O)C(C)(C)[C@@H]5CC[C@]43C)[C@@H]12` (some centres not stated) the “activity change, negative = inhibition” value was inactive: -18.1%. With `Cc1nn(C)c(C)c1C1C(C#N)=C(N)OC2=C1C(=O)CC(C)(C)C2` (configuration not stated) the Potency was inconclusive: 3.16 µM [inhibitor, single point]. With `CC(=O)OC[C@H]1O[C@H](C#Cc2ccc(C(C)(C)C)cc2)C=C[C@H]1OC(C)=O` the Potency was inconclusive: 0.0067 µM [inhibitor, full curve, poor fit]. With `Cc1oc2cc3oc(=O)c(CCC(=O)N4CCCCC4)c(C)c3cc2c1C` the Potency was inconclusive: 6.31 µM [activator, partial curve, poor fit]. With `C/C(=N\NC(=O)c1cccc(N/N=C(\C)c2ccc([N+](=O)[O-])cc2)c1)c1ccc([N+](=O)[O-])cc1` the “activity change, negative = inhibition” value was inactive: 3.12%. In the case of `CC(C)c1ccc(-c2nc3ccccc3s2)cc1`, the Potency is reported as inconclusive: 0.891 µM [inhibitor, full curve, poor fit]. With `CCC(C(=O)Nc1cccc(C(F)(F)F)c1)c1ccccc1` (configuration not stated) the Potency was inconclusive: 22.4 µM [inhibitor, single point]. For `Nc1nnc(-c2ccccc2[N+](=O)[O-])o1`, the “activity change, negative = inhibition” value was inactive: 0.589%. For `O=C(O)c1ccccc1Nc1ccc([N+](=O)[O-])cc1`, the Potency was active: 0.501 µM. In the case of `N#C/C(=N\Nc1ccccc1)C(=N)N1CCCCC1`, the Potency is reported as inconclusive: 1.58 µM [activator, partial curve, poor fit]. For `CC(C)CNC(=O)C1(N2C(=O)c3ccccc3C2=O)CCCC1`, the Potency was inconclusive: 0.112 µM [inhibitor, full curve, poor fit]. For `O=C(CN1CCCCCCC1)N/N=C/c1ccc(F)c(F)c1`, the “activity change, negative = inhibition” value was inactive: -27.5%. With `O=C(COC(=O)c1ccc2c(c1)OCO2)NC1CCS(=O)(=O)C1` (configuration not stated) the Potency was inconclusive: 14.1 µM [activator, single point]. With `COc1ccc(/C(O)=C2\C(=O)C(=O)N(CCN3CCOCC3)[C@H]2c2ccccn2)cc1OC` the Potency was inconclusive: 8.91 µM [activator, partial curve]. For `Cc1ccc(-n2nnc3c(=O)n(CC(=O)N4CCCC4)cnc32)cc1`, the Potency was inconclusive: 32.6 µM [activator, partial curve, poor fit]. For `COc1ccccc1N1CCN(c2cc(=O)n(-c3ccccc3Cl)c(=O)[nH]2)CC1`, the Potency was inconclusive: 1.46 µM [inhibitor, partial curve, poor fit]. With `Cc1sc2c(c1C)CN(C1CC(C)(C)NC(C)(C)C1)CN2C(=O)c1ccco1` the “activity change, negative = inhibition” value was inactive: 2.81%. With `CCOc1ccccc1OCC(=O)NCc1ccco1` the “activity change, negative = inhibition” value was inactive: 20.2%. In the case of `COc1ccc(NC(=O)c2ccc3ccccc3n2)cc1S(=O)(=O)N1CCCCC1`, the Potency is reported as inconclusive: 29.1 µM [activator, single point]. With `CCN1C(=O)c2cccc3c(S(=O)(=O)Nc4ccncc4)ccc1c23` the Potency was inconclusive: 18.3 µM [activator, single point]. For `O=C(Cc1c(F)cccc1Cl)NNC(=O)c1ccco1`, the “activity change, negative = inhibition” value was inactive: -3.81%. For `Cc1ccc(C(=O)Nc2ccc(Nc3ccccc3)cc2)cc1Br`, the “activity change, negative = inhibition” value was inactive: -6.02% [at 46.1 µM]. For `CCOC(=O)c1cc2c(=O)n3ccccc3nc2n(CC(C)C)c1=NC(=O)c1ccco1`, the Potency was “inactive”. In the case of `Cc1nc(Nc2ccc(C(=O)O)cc2)sc1-c1ccccc1`, the Potency is reported as inconclusive: 8.91 µM [inhibitor, partial curve, poor fit]. In the case of `CSc1ncccc1C(=O)N1CCCC(C(=O)c2ccc3ccccc3c2)C1` (configuration not stated), the Potency is reported as inconclusive: 10 µM [inhibitor, partial curve, poor fit]. For `O=C1C(=O)c2ccccc2C(O)=C1CC=C(Cl)Cl`, the Potency was inconclusive: 3.16 µM [inhibitor, partial curve, poor fit]. In the case of `O=C(CCn1nc(-c2ccccc2)ccc1=O)N1CCN(c2ccccc2)CC1`, the Potency is reported as inconclusive: 0.562 µM [inhibitor, full curve, poor fit]. With `COc1ccc(NC(=O)C(C)n2nnc3sc(-c4ccccc4)cc3c2=O)cc1Cl` (configuration not stated) the “activity change, negative = inhibition” value was inactive: -0.919% [at 46.1 µM]. In the case of `COc1ccc(Nc2nc(NCCN3CCOCC3)nc(Nc3ccc(OC)cc3)n2)cc1`, the Potency is reported as inconclusive: 7.94 µM [inhibitor, partial curve, poor fit]. With `COc1ccccc1CCNC(=O)C1CCC(=O)N(C2CCCCCC2)C1` (configuration not stated) the Potency was inconclusive: 17.8 µM [inhibitor, single point]. In the case of `N=c1n(CCN2CCCCC2)c2ccccc2n1CC(O)c1ccco1` (configuration not stated), the Potency is reported as inconclusive: 22.4 µM [inhibitor, partial curve, poor fit]. In the case of `C=CCn1c(SCC(=O)OCc2ccccc2)nc2c1c(=O)n(C)c(=O)n2C`, the “activity change, negative = inhibition” value is reported as inactive: 1.14%. For `COc1ccc(NC(=O)C(C)Sc2nnc(C3CC3)n2C2CC2)cc1` (configuration not stated), the Potency was inconclusive: 0.447 µM [activator, partial curve, poor fit]. With `COc1cccc(N(CC(=O)NC2CCCCC2)C(=O)CCC(=O)Nc2nccs2)c1` the “activity change, negative = inhibition” value was inactive: -20.4% [at 46.1 µM]. In the case of `CCc1nc(N)c(C#N)c(-c2cccn2C)c1C`, the Potency is reported as inconclusive: 3.66 µM [inhibitor, single point]. In the case of `COc1ccccc1CCNC(=O)Cc1c(C)c2c(cc(C)c3c(C)c(C)oc32)oc1=O`, the Potency is reported as inconclusive: 3.16 µM [activator, partial curve, poor fit]. With `Cc1cccc(N2CCN(C(=O)Cn3cnc4sc(C)c(S(=O)(=O)N5CCN(c6ncccn6)CC5)c4c3=O)CC2C)c1` (configuration not stated) the Potency was inconclusive: 8.91 µM [inhibitor, partial curve, poor fit]. With `COc1ccc(C2=NO[C@@H]3C(=O)N(c4ccc5c(c4)OCCO5)C(=O)[C@H]23)cc1OC` the “activity change, negative = inhibition” value was inactive: -0.885%. For `CC(Cc1cccnc1)NC(=O)CCc1nnc(-c2ccccc2)o1` (configuration not stated), the “activity change, negative = inhibition” value was inactive: -0.394% [at 46.1 µM]. With `COc1cc(S(=O)(=O)N2CCCC2)c(C)cc1C` the Potency was inconclusive: 35.5 µM [inhibitor, single point]. In the case of `COc1ccccc1-c1c(C)nn2c(N3CCC4(CC3)OCCO4)cc(C)nc12`, the Potency is reported as inconclusive: 35.5 µM [inhibitor, single point].
